PMC12170339, “Cryo-EM structure of the NDH–PSI–LHCI supercomplex from Spinacia oleracea” (Nature Structural & Molecular Biology, 2025)
These are yes or no findings as the source states them, for the method shown. Binding seen in cells or lysates may run through a third protein. A result given as binding can be weak or reduced; the word gives no strength.

Assays:
Assay in all cases: cryo-EM structure; single-particle cryo-EM of the endogenous NDH–PSI–LHCI-2 supercomplex co-purified from spinach stromal lamellae in t-PCCαM; buffer A: 30 mM HEPES pH 7.8, 2 mM MgCl2, 2 mM KCl, 0.5 mM Na2-EDTA, 100 mM NaCl, 2 mM DTT, 0.04% t-PCCαM; 38,385 particles; 3.0–3.3 Å; both purified
[1] = target: T1, NdhJ (S. oleracea) (UniProt Q9M3M1)
T1 sequence: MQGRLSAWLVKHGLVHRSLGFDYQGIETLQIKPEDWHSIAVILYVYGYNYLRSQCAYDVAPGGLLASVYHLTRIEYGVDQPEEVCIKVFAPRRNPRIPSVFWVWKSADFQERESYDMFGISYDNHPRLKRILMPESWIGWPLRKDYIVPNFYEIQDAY

[2] = target: T2, NdhI (S. oleracea) (UniProt Q9M3I7)
T2 sequence: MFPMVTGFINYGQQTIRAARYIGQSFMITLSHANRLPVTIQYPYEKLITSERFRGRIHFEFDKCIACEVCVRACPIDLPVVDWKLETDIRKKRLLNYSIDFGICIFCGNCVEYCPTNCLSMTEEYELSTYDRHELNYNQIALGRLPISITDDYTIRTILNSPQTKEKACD

[3] = target: T3, NdhH (S. oleracea, UniProt Q9M3I5 1-393)
T3 construct: NdhH, SubA module of chloroplast NDH, S. oleracea; source: purified from spinach (S. oleracea) leaves as part of the NDH–PSI–LHCI-2 supercomplex
T3 sequence (looked up): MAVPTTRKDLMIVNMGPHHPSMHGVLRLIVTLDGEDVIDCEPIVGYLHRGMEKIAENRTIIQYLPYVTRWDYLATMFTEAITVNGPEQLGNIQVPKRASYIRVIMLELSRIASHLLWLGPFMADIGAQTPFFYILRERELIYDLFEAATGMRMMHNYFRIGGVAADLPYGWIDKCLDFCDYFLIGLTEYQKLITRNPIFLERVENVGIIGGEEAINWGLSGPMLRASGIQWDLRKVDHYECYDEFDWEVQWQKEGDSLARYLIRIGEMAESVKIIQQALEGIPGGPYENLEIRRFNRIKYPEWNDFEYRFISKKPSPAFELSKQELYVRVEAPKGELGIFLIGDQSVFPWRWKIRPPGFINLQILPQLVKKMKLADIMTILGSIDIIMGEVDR

[4] = target: T4, NdhK (S. oleracea, UniProt Q9M3M0 1-227)
T4 construct: NdhK, SubA module of chloroplast NDH, S. oleracea; source: purified from spinach (S. oleracea) leaves as part of the NDH–PSI–LHCI-2 supercomplex
T4 sequence (looked up): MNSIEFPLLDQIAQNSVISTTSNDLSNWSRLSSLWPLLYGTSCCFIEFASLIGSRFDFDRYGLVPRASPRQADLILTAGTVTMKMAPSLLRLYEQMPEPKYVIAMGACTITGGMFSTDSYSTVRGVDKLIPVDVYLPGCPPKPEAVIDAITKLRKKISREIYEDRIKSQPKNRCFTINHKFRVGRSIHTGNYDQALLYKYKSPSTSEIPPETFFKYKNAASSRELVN

[5] = target: T5, NdhD (S. oleracea) (UniProt Q9M3J0)
T5 sequence: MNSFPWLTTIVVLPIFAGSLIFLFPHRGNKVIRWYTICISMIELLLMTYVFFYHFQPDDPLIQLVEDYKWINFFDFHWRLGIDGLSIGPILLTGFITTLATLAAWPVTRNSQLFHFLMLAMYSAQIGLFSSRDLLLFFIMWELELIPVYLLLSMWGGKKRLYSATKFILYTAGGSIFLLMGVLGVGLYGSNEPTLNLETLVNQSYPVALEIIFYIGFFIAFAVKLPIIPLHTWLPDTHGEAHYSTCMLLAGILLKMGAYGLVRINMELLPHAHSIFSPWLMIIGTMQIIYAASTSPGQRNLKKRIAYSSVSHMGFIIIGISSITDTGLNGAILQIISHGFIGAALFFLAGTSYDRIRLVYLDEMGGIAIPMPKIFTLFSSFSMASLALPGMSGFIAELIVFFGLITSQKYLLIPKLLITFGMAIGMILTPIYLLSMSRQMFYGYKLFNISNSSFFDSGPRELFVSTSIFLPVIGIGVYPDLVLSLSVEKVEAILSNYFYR

[6] = target: T6, NdhB (S. oleracea)
T6 sequence: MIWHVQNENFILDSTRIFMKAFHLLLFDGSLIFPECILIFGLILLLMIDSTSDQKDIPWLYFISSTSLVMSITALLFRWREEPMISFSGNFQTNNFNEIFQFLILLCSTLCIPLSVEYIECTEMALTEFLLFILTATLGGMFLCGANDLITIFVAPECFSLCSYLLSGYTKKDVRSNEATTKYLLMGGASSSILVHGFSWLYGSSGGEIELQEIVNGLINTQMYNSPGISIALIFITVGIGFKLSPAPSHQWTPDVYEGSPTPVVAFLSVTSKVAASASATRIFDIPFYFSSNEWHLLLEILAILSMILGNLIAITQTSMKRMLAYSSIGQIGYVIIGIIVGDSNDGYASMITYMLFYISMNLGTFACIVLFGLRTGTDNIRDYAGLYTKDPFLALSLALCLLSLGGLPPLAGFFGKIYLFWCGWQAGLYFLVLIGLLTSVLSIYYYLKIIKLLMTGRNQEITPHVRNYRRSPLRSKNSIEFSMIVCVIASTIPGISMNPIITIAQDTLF

Substance	binding [1]	binding [2]	binding [3]	binding [4]	binding [5]	binding [6]
NdhU (S. oleracea)	binds	binds	binds	binds	–	–
PnsB1 (S. oleracea)	–	–	binds	–	binds	binds
PnsB5 (S. oleracea)	–	–	–	–	binds	–
